Columns and labels:
[1] = test system: HeLa cells; experiment: Live cell fluorescence imaging: localization, co-localization and uptake; type: cell-based
Procedure: FIG. 6 depicts live cell imaging of HeLa cells. 500 nM mitotracker Red was bath-applied along with 1 μM DA-ZP1-TPP for 30 min at 37° C. and 5% CO2. After exposure to 25 μM 1:2 zinc:pyrithione, fluorescent images were acquired and the co-localization of the two sensors was assessed. The calculated Pearson's correlation coefficient (r) was r=0.581±0.097 (n=9), which represents the average of 9 ROIs over three independent plates.
FIG. 14 depicts live cell imaging of HeLa cells. 1 μM Lysotracker Red was bath-applied along with 2 μM ZP1-TPP. The calculated Pearson's correlation coefficient (r) was r=0.45±0.15, which represents the average of 9 ROIs over three independent plates.
FIG. 24 depicts fluorescence images of live HeLa cells. HeLa cells were pretreated with a 1 μM solution of DA-ZP1-TPP in dye- and serum-free medium for 30 min (37° C., 5% CO2). […] The signal from MitoTracker Red (c) correlates well with the signal from the zinc-bound sensor (d). Pearson's r=0.64±0.1 (n=18).
FIG. 27 depicts deconvoluted fluorescence microscopy images of live HeLa cells pretreated with ZP1-R9 (5 μM) or DA-ZP1-R9 (2.5 μM) and the indicated organelle stain. Top, ZP1-R9: (a) Differential interference contrast (DIC) image, (b) signal from ZP1-R9, (c) signal from LysoTracker Red, (d) overlay of (b) and (c). Pearson's r=0.42±0.16 (n=8). Bottom, DA-ZP1-R9: (e) DIC, (f) signal from DA-ZP1-R9 after treatment with 25 μM ZnPT, (g) signal from Hoechst 33258, (h) overlay of (f) and (g). Scale bar=25 μm.
FIG. 29 depicts deconvoluted fluorescence microscopy images of live HeLa cells pretreated with 1 μM DA-ZP1-R9 and 100 nM Dextran Red. (a) Differential interference contrast (DIC), (b) signal from DA-ZP1-R9 after addition of 25 μM ZnPT (c) signal from Dextran Red, (d) overlay of (b) and (c). Pearson's r=0.55±0.12 (n=11). Scale bar=25 μm.
FIG. 31 depicts deconvoluted fluorescence microscopy images of ZP1-(Fxr)3 and DA-ZP1-r(Fxr)3 in live HeLa cells. Top, cells pretreated with medium containing 2.5 μM of ZP1-(Fxr)3: (a) Differential interference contrast (DIC) image, (b) signal from ZP1-(Fxr)3, (c) signal from Dextran Red, (d) overlay of (b) and (c). Pearson's r=0.71±0.07. Bottom, cells pretreated with 1 μM DA-ZP1-r(Fxr)3: (e) DIC, (f) signal from DA-ZP1-r(Fx)3 after treatment with 25 μM ZnPT, (g) signal from MitoTracker Red, (h) overlay of (f) and (g). Pearson's r=0.41±0.09. Scale bar=25 μm.
FIG. 33 depicts deconvoluted fluorescence microscopy images of DCF-r(Fxr)3 and DA-DCF-r(Fxr)3 in live HeLa cells. Top, cells pretreated with 5 μM DCF-r(Fxr)3 and 500 nM MitoTracker Red for 30 min. (a) differential contrast image (DIC), (b) signal from DCF-r(Fxr)3, (c) signal from MitoTracker Red. Bottom, cells pretreated with 5 μM DA-DCF-r(Fxr)3 and 500 nM MitoTracker Red for 30 min. (d) DIC, (e) signal from DCF-r(Fxr)3, (f) signal from MitoTracker Red. The global Pearson's r=0.57±0.16 (n=37). Cells with high levels of DA-DCF-r(Fxr)3 (e, red outline) have a higher Pearson's r=0.83±0.08 (n=10). Scale bar=25 μm.
We used HeLa cells as a model system to evaluate the ability of DA-ZP1-TPP to target mitochondria and respond to changes in intracellular zinc levels. […] Over a two-hour period, the fluorescence intensity from the sensor remained constant, implying that the acetylated form is stable against intracellular esterases (FIG. 24e). […] Addition of 100 μM TPEN attenuated the fluorescence signal by ˜2.4-fold (FIG. 24f). […]

[2] = Zinc-induced fluorescence response in cuvette (turn-on, quantum yield); type: physicochemical
Procedure: FIG. 2 depicts the normalized fluorescent spectra of DA-ZP1-TPP (also referred to as Ac2-ZP1-TPP) and ZP1-TPP in the absence (dashed line) and presence (solid line) of excess ZnCl2. Inset: The y-axis is magnified to aid in the visualization of the ˜7-fold “turn-on” of ZP1-TPP.
FIG. 20 depicts Zn(II)-dependent fluorescence signal enhancement of DA-ZP1-TPP. (a) Normalized fluorescence spectra of a 1 μM solution of DA-ZP1-TPP, in 50 mM PIPES buffer (pH 7) with 1 mM EDTA, 2 mM CaCl2, and 100 mM KCl, upon increasing concentrations of free zinc ions. (b) Zinc binding isotherm for the data in (a), normalized to the fluorescence signal under zinc saturating conditions (λex=495 nm).
Spectra were acquired in 50 mM PIPES (pH 7) with 100 mM KCl. For this titration, a single excitation wavelength of λex=485 nm was used.
The diacetylated version of ZP1-TPP, designated DA-ZP1-TPP, was readily prepared by reacting ZP1-TPP with acetic anhydride overnight at room temperature. Over the course of the reaction, the mixture turned from a dark, salmon-colored solution to a light, nearly colorless liquid, which was purified by HPLC. […] Addition of nanomolar concentrations of zinc ions results in a large increase in both the absorption λabs-Zn=510 nm) and fluorescence (λem-Zn=529 nm, FIG. 20a) spectral bands of DA-ZP1-TPP. These optical changes combine to yield a >140-fold increase in the fluorescence signal (ΦZn=0.75±0.03, FIG. 20). […] Whether the mode of zinc-mediated ester hydrolysis proceeds by internal or external hydroxide attack remains to be determined. […] Addition of a chelator (EDTA) attenuates the fluorescence signal ˜5-fold (Φ=0.15±0.02) in the cuvette (FIG. 22) with a concomitant redshift in the absorption spectrum (λabs=522 nm). Reversibility of the fluorescence signal is an important feature for zinc-responsive probes, because it allows confirmation that the observed increase in fluorescence signal is due to Zn(II) and not the result of an artifact. […]
Using DA-ZP1-A3 as a model system, we assessed its photophysical and zinc-binding properties (FIG. 26). […]

Compound	Pearson's r, co-localization with LysoTracker Red ([1]; live HeLa cells)	Pearson's r, co-localization with MitoTracker Red ([1]; live HeLa cells)	quantum yield Φ after addition of chelator (EDTA) ([2]; EDTA added after zinc)	quantum yield ΦZn ([2]; after addition of zinc)	quantum yield Φ of acetylated pro-sensor, metal-free ([2]; before zinc addition)	Pearson's correlation coefficient (r), co-localization with mitotracker Red ([1]; live HeLa, 500 nM mitotracker Red, 1 μM probe, 25 μM 1:2 zinc:pyrithione, 9 ROIs)
O=C(NCC[P+](c1ccccc1)(c1ccccc1)c1ccccc1)c1ccc2c(c1)C1(OC2=O)c2cc(Cl)c(O)c(CN(Cc3ccccn3)Cc3ccccn3)c2Oc2c1cc(Cl)c(O)c2CN(Cc1ccccn1)Cc1ccccn1 [ZP1-TPP]	0.45±0.15	−0.15±0.07				
O=C(NCC[P+](c1ccccc1)(c1ccccc1)c1ccccc1)c1cc2cc3c4c(c2oc1=O)CCCN4CCC3 [C343-TPP]		0.72±0.02				
CC(=O)Oc1c(Cl)cc2c(c1CN(Cc1ccccn1)Cc1ccccn1)Oc1c(cc(Cl)c(OC(C)=O)c1CN(Cc1ccccn1)Cc1ccccn1)C21OC(=O)c2ccc(C(=O)NCC[P+](c3ccccc3)(c3ccccc3)c3ccccc3)cc21 [DA-ZP1-TPP]		0.64±0.1	0.15±0.02	0.75±0.03	≤ 0.001	0.581±0.097
